Results are given in words; binding and its absence hold for the method and conditions named. Some binding calls cover weakened binding; strength is not graded here. Sequences can lack the tags named with a protein.

We go through one molecule from patent publication US20100286372A1 (SCHERING, published 2010).

The test deals with T1, human PXR-LBD (pregnane X receptor ligand binding domain, residues 130-434) with N-terminal 6x His (human) (UniProt O75469).
T1 sequence: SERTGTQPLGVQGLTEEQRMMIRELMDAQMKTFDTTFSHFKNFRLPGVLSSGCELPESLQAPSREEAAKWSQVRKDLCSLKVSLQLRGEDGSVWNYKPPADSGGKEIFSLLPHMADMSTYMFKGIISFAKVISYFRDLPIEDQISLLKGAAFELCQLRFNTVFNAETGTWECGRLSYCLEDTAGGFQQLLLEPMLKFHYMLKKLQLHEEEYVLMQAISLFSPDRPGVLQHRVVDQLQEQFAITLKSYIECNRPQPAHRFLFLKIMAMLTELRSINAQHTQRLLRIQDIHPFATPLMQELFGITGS
As to the kind of experiment: temperature-dependent circular dichroism (thermal denaturation). A general note: Circular dichroism is the unequal absorption of left and right circularly polarised light.

B1: SRC-1 peptide (676-CPSSHSSLTERHKILHRLLQEGSPS-700) (peptide)
peptide: CPSSHSSLTERHKILHRLLQEGSPS
Turning to B1, the binding entry is given as “binds”.
